Earlier results in paper PMC10779086, “3-O-Methyltolcapone and Its Lipophilic Analogues Are Potent Inhibitors of Transthyretin Amyloidogenesis with High Permeability and Low Toxicity” (International Journal of Molecular Sciences, 2023).

Tested on: TTR
Settings: cited from earlier work

SMILES: Cc1ccc(C(=O)c2cc(O)c(O)c([N+](=O)[O-])c2)cc1 [tolcapone]
- ΔH (first binding site) (sequential model): -9.7 kcal/mol
- ΔH (second binding site) (sequential model): -9.7 kcal/mol

SMILES: Cc1n[nH]c(C)c1CCCOc1cc(C(=O)O)ccc1F [AG10]
- ΔH (standard single-site binding model): -13.6 kcal/mol
